The text below walks through data of PubChem BioAssay AID194 (DTP/NCI, 2004).

The list shows only some results of the screen, not a fair sample: it gathers some chemical classes. Other doses and runs of a compound may be missing. T/C: endpoint of the treated group in % of that of the vehicle group. Some T/C values are marked as having no survivor count here; that says nothing about deaths at the dose. Schedule codes are those of the source, read here as Q, the interval in days (D) or hours (H), X, the number of doses. For survival time, the PubChem record calls one and a half times the control and up active, and a quarter to a half above the control has no call in these data; cut-offs in other NCI protocols can differ.

The test concerns BDF1 mice, B16 melanoma s.c., survival/tumor T/C. Description: NCI In Vivo Anticancer Drug Screen. Data for tumor model B16 Melanoma (subcutaneous) in B6D2F1 (BDF1) mice. The conditions noted are these: schedule: Q01DX009 (ip), vehicle: saline. On the procedure:
The antitumor activity of compounds was measured in mice bearing transplantable tumors. Survival or tumor size were measured and the results are expressed as the measurement made in the treated group (T) divided by the measurement made in the vehicle treated control group (C). The tumor model used in this assay is B16 Melanoma (subcutaneous) in B6D2F1 (BDF1) mice

With `CN(CCCl)CCCl`, the T/C was 135 % of control [survivor count not shown] (T/C endpoint: median survival time, dose: 0.08 mg/kg/injection, higher T/C = longer survival); 100 % of control [survivor count not shown] (T/C endpoint: median survival time, dose: 0.15 mg/kg/injection, higher T/C = longer survival); 128 % of control [survivor count not shown] (T/C endpoint: median survival time, dose: 0.3 mg/kg/injection, higher T/C = longer survival); 101 % of control [survivor count not shown] (T/C endpoint: median survival time, dose: 0.6 mg/kg/injection, higher T/C = longer survival); 123 % of control [survivor count not shown] (T/C endpoint: median survival time, dose: 12.5 micrograms/kg/injection, higher T/C = longer survival); 126 % of control [survivor count not shown] (T/C endpoint: median survival time, dose: 25.0 micrograms/kg/injection, higher T/C = longer survival). Further, the T/C was 93 % of control [survivor count not shown] (T/C endpoint: median survival time, dose: 50.0 micrograms/kg/injection, higher T/C = longer survival); 128 % of control [survivor count not shown] (T/C endpoint: median survival time, dose: 100.0 micrograms/kg/injection, higher T/C = longer survival); 55 % of control [survivor count not shown] (T/C endpoint: median tumor weight (est.), dose: 125.0 micrograms/kg/injection, evaluation day not shown, higher T/C = larger tumour); 75 % of control [survivor count not shown] (T/C endpoint: median tumor weight (est.), dose: 250.0 micrograms/kg/injection, evaluation day not shown, higher T/C = larger tumour); 57 % of control [survivor count not shown] (T/C endpoint: median tumor weight (est.), dose: 500.0 micrograms/kg/injection, evaluation day not shown, higher T/C = larger tumour); 46 % of control [survivor count not shown] (T/C endpoint: median tumor weight (est.), dose: 1000.0 micrograms/kg/injection, evaluation day not shown, higher T/C = larger tumour).
